Source: the supplement of paper PMC10849652
The other results are listed elsewhere or left out.

The chains behind the UniProt entries cited, without tags or fusion partners. Where a name states a change or a piece, a line headed by the entry shows the natural chain unless it says otherwise.
UniProt Q86TP1: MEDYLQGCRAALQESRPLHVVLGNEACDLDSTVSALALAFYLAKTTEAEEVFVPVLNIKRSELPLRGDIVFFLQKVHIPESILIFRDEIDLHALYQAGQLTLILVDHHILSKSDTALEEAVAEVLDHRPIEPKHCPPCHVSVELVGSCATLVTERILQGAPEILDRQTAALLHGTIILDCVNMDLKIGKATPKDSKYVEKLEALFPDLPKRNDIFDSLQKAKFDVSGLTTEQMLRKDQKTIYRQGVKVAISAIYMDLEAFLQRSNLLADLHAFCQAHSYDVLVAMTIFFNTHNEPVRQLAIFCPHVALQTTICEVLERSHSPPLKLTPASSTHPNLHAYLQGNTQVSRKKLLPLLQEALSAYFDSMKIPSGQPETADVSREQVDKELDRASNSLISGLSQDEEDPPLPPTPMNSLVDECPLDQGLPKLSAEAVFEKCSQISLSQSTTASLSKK
UniProt Q96QR8: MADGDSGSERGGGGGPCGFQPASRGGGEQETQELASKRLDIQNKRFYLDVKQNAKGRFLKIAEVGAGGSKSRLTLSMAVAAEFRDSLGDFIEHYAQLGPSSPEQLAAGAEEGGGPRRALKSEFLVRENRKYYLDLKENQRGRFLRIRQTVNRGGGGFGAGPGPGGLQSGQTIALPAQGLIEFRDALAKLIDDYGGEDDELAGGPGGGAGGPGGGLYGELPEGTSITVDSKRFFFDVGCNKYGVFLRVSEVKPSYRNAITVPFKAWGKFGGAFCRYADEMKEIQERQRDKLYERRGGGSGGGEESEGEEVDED
UniProt Q9BT73: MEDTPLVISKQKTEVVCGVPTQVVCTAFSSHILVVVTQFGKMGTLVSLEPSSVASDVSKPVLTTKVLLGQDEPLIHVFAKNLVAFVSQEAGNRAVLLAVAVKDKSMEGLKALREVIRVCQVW
UniProt Q06323: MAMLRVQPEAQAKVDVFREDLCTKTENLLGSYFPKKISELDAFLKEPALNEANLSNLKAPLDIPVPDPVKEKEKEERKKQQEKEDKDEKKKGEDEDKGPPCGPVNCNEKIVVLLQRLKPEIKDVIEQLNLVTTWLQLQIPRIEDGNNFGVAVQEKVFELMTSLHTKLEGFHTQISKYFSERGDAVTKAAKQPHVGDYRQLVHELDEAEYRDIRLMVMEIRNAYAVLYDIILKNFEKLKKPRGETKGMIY
UniProt P43378: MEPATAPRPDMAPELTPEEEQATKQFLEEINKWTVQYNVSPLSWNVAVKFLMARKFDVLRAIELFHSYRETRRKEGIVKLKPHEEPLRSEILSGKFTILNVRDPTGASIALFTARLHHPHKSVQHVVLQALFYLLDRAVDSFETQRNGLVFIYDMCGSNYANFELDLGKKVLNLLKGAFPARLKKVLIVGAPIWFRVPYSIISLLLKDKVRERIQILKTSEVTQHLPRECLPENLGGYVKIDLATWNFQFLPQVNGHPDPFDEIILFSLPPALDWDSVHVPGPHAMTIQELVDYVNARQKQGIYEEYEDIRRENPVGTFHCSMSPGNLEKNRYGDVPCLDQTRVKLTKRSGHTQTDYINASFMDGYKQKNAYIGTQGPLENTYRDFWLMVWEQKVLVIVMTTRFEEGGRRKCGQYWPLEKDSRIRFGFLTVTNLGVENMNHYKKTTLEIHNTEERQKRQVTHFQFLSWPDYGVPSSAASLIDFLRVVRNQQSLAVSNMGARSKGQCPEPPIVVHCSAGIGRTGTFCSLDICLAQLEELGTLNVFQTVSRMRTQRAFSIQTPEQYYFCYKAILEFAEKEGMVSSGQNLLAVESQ
UniProt Q14671: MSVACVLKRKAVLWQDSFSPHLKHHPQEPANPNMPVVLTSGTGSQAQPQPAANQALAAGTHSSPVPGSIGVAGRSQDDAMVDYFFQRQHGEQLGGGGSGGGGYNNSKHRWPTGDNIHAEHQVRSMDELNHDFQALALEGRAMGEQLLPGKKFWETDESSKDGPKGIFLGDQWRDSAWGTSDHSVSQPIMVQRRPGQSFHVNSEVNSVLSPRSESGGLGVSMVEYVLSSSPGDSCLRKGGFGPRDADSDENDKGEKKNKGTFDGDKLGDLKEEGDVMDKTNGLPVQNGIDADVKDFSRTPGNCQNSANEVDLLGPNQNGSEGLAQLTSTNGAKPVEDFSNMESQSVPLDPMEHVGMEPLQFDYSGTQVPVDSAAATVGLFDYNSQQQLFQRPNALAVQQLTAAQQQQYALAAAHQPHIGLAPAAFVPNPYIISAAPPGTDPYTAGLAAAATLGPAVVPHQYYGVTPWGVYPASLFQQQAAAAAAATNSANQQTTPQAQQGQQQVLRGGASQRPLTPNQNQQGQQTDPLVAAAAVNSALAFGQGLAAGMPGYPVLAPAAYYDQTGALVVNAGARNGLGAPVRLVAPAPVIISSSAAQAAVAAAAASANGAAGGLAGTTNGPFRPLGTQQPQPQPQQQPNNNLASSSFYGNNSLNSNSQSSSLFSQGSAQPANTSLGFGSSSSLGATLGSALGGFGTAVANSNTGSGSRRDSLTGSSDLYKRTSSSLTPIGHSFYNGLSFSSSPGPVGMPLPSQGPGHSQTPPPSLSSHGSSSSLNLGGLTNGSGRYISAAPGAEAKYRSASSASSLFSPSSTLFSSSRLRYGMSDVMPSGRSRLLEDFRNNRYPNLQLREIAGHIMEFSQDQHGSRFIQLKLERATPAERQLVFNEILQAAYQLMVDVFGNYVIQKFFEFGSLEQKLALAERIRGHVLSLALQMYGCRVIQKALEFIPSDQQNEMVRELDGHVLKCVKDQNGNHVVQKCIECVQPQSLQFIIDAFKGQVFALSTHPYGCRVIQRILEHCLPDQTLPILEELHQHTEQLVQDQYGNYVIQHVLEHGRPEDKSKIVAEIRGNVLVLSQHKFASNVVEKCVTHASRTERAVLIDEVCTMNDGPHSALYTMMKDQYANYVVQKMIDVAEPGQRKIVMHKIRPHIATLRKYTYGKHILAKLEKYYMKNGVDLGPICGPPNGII
UniProt Q9H0K6: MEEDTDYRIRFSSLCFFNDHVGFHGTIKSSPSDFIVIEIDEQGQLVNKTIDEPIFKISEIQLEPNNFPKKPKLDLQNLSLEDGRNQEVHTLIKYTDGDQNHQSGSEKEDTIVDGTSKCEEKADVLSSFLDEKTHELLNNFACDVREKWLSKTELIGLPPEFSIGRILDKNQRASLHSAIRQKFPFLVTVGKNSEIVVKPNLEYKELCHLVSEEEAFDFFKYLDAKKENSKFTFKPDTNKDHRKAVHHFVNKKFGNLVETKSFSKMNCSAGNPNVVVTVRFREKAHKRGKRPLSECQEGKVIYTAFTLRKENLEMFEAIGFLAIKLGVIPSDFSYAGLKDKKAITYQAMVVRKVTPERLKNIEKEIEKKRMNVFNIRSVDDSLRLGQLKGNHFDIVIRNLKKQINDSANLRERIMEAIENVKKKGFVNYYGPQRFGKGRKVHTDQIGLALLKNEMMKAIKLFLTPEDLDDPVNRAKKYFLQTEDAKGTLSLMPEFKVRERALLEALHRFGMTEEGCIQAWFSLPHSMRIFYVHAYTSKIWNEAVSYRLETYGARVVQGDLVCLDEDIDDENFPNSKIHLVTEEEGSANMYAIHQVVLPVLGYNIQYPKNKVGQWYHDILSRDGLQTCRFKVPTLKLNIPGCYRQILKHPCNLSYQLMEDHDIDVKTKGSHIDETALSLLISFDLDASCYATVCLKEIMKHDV
UniProt O14818: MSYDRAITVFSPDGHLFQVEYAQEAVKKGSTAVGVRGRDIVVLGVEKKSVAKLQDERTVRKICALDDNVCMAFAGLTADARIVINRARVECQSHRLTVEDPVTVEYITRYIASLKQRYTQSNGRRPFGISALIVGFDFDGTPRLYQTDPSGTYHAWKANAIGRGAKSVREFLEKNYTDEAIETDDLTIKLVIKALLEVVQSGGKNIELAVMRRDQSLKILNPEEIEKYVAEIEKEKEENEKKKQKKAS
UniProt Q12913: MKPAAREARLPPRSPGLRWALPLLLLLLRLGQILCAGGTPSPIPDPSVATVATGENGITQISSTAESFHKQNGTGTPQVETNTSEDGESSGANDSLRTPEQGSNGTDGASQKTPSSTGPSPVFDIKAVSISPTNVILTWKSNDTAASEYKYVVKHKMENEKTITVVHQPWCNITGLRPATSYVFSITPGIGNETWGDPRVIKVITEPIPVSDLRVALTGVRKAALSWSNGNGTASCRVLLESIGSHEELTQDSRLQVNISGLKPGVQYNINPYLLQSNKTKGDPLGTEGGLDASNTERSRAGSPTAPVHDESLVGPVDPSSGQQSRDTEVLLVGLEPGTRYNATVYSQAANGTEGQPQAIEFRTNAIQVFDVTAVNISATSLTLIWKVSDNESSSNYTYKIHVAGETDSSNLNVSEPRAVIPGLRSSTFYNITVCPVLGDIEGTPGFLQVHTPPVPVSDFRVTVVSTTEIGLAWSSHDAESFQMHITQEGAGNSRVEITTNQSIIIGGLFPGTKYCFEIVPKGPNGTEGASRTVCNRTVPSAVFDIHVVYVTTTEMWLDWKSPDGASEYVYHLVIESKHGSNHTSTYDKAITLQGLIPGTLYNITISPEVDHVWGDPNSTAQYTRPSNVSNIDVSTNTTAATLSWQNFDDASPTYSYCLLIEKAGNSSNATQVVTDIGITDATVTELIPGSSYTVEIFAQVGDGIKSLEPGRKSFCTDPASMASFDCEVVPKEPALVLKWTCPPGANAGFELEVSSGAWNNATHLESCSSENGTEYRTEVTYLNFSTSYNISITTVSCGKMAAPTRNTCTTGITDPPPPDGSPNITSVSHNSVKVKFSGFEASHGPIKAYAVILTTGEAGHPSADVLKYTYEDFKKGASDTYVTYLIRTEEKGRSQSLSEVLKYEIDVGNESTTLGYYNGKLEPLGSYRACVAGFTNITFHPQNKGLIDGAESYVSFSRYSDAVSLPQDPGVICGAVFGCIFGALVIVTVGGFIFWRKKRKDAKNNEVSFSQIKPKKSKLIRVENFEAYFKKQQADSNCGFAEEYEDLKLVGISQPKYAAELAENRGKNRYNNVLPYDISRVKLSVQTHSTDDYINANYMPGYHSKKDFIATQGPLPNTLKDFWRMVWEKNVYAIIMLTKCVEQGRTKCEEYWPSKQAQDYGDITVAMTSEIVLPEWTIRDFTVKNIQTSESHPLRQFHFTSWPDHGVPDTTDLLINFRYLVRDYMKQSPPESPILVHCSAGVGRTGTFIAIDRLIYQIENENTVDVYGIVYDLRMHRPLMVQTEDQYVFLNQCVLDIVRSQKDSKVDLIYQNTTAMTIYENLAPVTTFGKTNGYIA
UniProt Q92530: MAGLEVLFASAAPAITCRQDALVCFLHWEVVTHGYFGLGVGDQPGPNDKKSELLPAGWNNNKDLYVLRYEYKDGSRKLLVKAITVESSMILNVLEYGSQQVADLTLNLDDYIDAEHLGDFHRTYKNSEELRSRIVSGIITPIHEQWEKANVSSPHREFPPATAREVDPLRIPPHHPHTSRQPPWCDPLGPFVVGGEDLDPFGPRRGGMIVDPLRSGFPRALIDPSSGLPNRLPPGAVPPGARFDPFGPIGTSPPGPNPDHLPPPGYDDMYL
UniProt Q8TB72: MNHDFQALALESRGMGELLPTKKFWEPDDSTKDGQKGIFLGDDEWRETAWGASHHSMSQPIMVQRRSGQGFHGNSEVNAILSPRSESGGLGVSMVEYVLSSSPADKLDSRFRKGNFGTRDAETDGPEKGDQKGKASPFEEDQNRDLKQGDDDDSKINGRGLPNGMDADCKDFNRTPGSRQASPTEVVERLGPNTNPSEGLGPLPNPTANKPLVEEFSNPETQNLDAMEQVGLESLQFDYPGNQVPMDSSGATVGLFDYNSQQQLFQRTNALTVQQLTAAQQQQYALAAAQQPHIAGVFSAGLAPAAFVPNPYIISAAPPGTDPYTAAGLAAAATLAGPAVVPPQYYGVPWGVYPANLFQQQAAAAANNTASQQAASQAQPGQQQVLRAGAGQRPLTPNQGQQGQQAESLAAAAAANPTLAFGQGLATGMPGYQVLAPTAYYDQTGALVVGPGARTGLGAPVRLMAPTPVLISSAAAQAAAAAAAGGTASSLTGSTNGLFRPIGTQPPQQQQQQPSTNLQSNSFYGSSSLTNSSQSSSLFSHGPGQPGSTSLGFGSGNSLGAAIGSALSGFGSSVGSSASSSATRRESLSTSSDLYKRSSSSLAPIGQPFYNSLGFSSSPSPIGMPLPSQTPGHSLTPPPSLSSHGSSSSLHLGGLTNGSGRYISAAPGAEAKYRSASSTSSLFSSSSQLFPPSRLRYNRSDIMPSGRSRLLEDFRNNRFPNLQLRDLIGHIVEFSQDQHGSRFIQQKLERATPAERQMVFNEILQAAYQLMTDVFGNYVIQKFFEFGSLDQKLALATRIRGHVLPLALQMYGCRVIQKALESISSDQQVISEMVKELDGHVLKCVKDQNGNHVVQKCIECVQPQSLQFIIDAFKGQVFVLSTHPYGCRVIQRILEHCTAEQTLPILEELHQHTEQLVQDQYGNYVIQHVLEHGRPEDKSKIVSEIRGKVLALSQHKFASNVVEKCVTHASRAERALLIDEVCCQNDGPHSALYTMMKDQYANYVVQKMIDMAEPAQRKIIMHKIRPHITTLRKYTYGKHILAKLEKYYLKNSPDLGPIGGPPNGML

Experiments:
Test in all cases: log2 fold change, soluble protein after heating vs DMSO (PISA); higher = thermal stabilisation; K562 lysate, 10 uM; active = over 0.2 and 3.5 SD of the protein, either way, in both replicates (recomputed)
[1] = compound: C1=CC=C(C=C1)[C@H](COC2=CC3=C(C=C2)NC(=O)N3)NC(=O)C4=CC=CN(C4=O)CC5=CC(=C(C=C5)F)F
Outline: (§1)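 To prepare the extract, K562 pellets were dounce-homogenised in PBS pH 7.4 with 1 mM MgCl2, giving crude material at 1 mg/mL protein. This was treated with 10 μM compound for 30 min, then heated in aliquots for 3 min over 48°C-58°C before pooling and addition of NP-40 to 0.5% at 4°C. Centrifugation at 21,000xg for 90 min left soluble protein in the supernatant, which TMTpro 16plex LC-MS/MS quantified with equalised channel sums. Results are log-two fold changes in thermal stability compared with solvent controls, from duplicates.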

[2] = compound: CC1=C(SC2=C1C(=N[C@H](C3=NN=C(N32)C)CC(=O)N)C4=CC=C(C=C4)Cl)C
Outline: as §1

[3] = compound: CC1=C2C(=CC=C1)N=C(N(C2=O)C3=CC=CC=C3C)CN4C=NC5=C(N=CN=C54)N
Outline: as §1

[4] = compound: Cc1sc2c(c1C)C(c1ccc(Cl)cc1)=N[C@@H](CC(=O)OC(C)(C)C)c1nnc(C)n1-2
Outline: as §1

[5] = compound: c1ccc([C@@H]2C[C@H]2NC2CCNCC2)cc1
Outline: as §1

Measured: log2 fold change

PRRC2A (UniProt P48634)
inactive: [1] -0.047 | [2] 0.003 | [3] 0.001 | [4] 0.017 | [5] -0.02

PTRH2 (UniProt Q9Y3E5)
inactive: [1] -0.026 | [2] -0.018 | [3] -0.051 | [4] 0.002 | [5] 0.014

PRUNE1 (UniProt Q86TP1)
inactive: [1] 0.016 | [2] -0.013 | [3] 0.018 | [4] 0.034 | [5] -0.003

PURB (UniProt Q96QR8)
inactive: [1] 0.111 | [2] -0.075 | [3] -0.008 | [4] -0.015 | [5] -0.073

PSMG3 (UniProt Q9BT73)
inactive: [1] -0.047 | [2] 0.01 | [3] 0.006 | [4] 0.017 | [5] 0.009

PSME1 (UniProt Q06323)
inactive: [1] 0.02 | [2] -0.006 | [3] -0.008 | [4] 0.002 | [5] 0.049

PTPN9 (UniProt P43378)
inactive: [1] -0.1 | [2] 0.04 | [3] 0.102 | [4] -0.051 | [5] -0.017

PTGES3 (UniProt Q15185)
inactive: [1] 0.016 | [2] -0.009 | [3] -0.004 | [4] 0.027 | [5] 0.007

PUM1 isoform 3 (UniProt Q14671)
inactive: [1] -0.057 | [2] 0.048 | [3] 0.024 | [4] -0.003 | [5] 0.054

PUS7L (UniProt Q9H0K6)
inactive: [1] 0.019 | [2] 0.019 | [3] -0.014 | [4] -0.003 | [5] -0.03

Looked up one by one from the list above, two records:
PTPN9 (UniProt P43378)
inactive: [1] -0.1 | [2] 0.04 | [3] 0.102 | [4] -0.051 | [5] -0.017

PTGES3 (UniProt Q15185)
inactive: [1] 0.016 | [2] -0.009 | [3] -0.004 | [4] 0.027 | [5] 0.007

Additional records:

PSMA7 (UniProt O14818)
inactive: [1] -0.021 | [2] 0.013 | [3] -0.012 | [4] 0.016 | [5] 0.041

PTPRJ (UniProt Q12913)
inactive: [1] -0.04 | [2] 0.083 | [3] 0.141 | [5] 0.058

PSMF1 (UniProt Q92530)
inactive: [1] -0.032 | [2] 0.018 | [3] -0.017 | [4] -0.004 | [5] -0.21

PUM2 (UniProt Q8TB72)
inactive: [1] -0.049 | [2] 0.027 | [3] -0.021 | [4] 0.021 | [5] 0.109
